{"source": "the supplement of paper PMC9177965", "note": "The entries are a selection whose mix differs from that of the whole data set.", "data": [{"tested_on": "HT29 RNF43 G659fs (RNF43 659mut, CRISPR-edited)", "assay": "cell viability activity relative to DMSO (negative = inhibition); higher = more viable cells (less growth inhibition)", "conditions": "5 µM; 96 h", "protocol": "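Broad Repurposing Library primary screen at a single dose of 5 uM. HT29 sg-Ctrl and HT29 RNF43 G659fs CRISPR-edited isogenic cells were seeded at 2500 cells/well in 384-well plates in duplicate and treated for 96 h. Viability was read by CellTiter-Glo and reported as % activity relative to DMSO, with MG132 as the positive control (negative = growth inhibition).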", "units": {"cell viability activity": "%"}, "values": [{"compound": "COc1cc(N2CCN(C(C)=O)CC2)ccc1Nc1ncc(Cl)c(Nc2ccc(N3CCN(C(C)=O)CC3)cc2OC)n1", "cell viability activity": -24.3}, {"compound": "Cc1nc2c(-c3cnc(N)nc3)nc(N3CCOCC3)nc2n1C(C)C", "cell viability activity": -74}]}]}
